No constants are given. Whether binding was seen depends on the method and setting.
Target: T1, Sulfolobus acidocaldarius FlaI (Sulfolobus acidocaldarius), Q4J9L0
T1 chain: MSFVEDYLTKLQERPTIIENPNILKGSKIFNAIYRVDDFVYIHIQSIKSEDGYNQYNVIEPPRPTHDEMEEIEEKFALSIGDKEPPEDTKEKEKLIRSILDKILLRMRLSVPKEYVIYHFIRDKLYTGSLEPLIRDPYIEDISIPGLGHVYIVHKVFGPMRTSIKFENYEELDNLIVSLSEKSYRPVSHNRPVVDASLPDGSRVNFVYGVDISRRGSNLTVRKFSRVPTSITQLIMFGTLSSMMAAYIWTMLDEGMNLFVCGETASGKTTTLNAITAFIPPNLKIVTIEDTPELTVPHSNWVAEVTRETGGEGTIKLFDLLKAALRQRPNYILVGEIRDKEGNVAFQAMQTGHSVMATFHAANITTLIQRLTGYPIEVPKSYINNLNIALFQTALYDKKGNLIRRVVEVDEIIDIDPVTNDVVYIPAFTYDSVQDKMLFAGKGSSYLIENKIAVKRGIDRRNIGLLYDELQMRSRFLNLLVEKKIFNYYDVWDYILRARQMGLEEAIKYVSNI
Assay: SEC; Superdex 200 10/300 GL; 500 µl of protein at 1 mg/ml; 20 mM Tris HCl pH 8.0, 150 mM NaCl; no nucleotide added; fractions on SDS-PAGE; both purified
Conditions: remark: other sources report otherwise

B1: Sulfolobus acidocaldarius FlaI, Q4J9L0 1-513 (enzyme)
chain: MSFVEDYLTKLQERPTIIENPNILKGSKIFNAIYRVDDFVYIHIQSIKSEDGYNQYNVIEPPRPTHDEMEEIEEKFALSIGDKEPPEDTKEKEKLIRSILDKILLRMRLSVPKEYVIYHFIRDKLYTGSLEPLIRDPYIEDISIPGLGHVYIVHKVFGPMRTSIKFENYEELDNLIVSLSEKSYRPVSHNRPVVDASLPDGSRVNFVYGVDISRRGSNLTVRKFSRVPTSITQLIMFGTLSSMMAAYIWTMLDEGMNLFVCGETASGKTTTLNAITAFIPPNLKIVTIEDTPELTVPHSNWVAEVTRETGGEGTIKLFDLLKAALRQRPNYILVGEIRDKEGNVAFQAMQTGHSVMATFHAANITTLIQRLTGYPIEVPKSYINNLNIALFQTALYDKKGNLIRRVVEVDEIIDIDPVTNDVVYIPAFTYDSVQDKMLFAGKGSSYLIENKIAVKRGIDRRNIGLLYDELQMRSRFLNLLVEKKIFNYYDVWDYILRARQMGLEEAIKYVSNI
  binding: no binding

Reference: publication PMC6011876, “Characterization of the ATPase FlaI of the motor complex of the Pyrococcus furiosus archaellum and its interactions between the ATP-binding protein FlaH” (PeerJ, 2018)
